The assay can be described thus: qHTS Assay for Modulators of Lamin A Splicing. The following applies: HeLa LMNA splicing GFP/RFP minigene ratio, 48 h. The method in brief: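 S3 HeLa cells stably expressing lamin A-EGFP splicing minigene plus DsRed2, 600 cells/well, 48 h compound exposure at 37C. Laser-scanning cytometry; analysed as GFP (500-530 nm)/RFP (575-640 nm) total intensity ratio; 0.5% DMSO vehicle.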
For orientation: In qHTS, concentration-response curves come from the screen itself.

The mark [1] stands for this setting: measured here: GFP splicing reporter channel.
[2] abbreviates: measured here: RFP viability control channel.

This is one part of the list. The main result of the screen is listed elsewhere. These columns were measured beside it and carry no call. Most of these compounds were active or inconclusive in the main read-out, so they are no random draw. Potencies come from curve fits of mixed quality, noted in brackets.

For the compound `CCOC(=O)N1CCN(C(=O)COc2ccc(S(=O)(=O)NCc3ccccc3)cc2)CC1`, the AC50 was 11.2 µM [rising, partial curve] under setting [1] and 14.1 µM [rising, single point] under setting [2].

Turning to `O=S(=O)(NCc1ccccc1)c1ccc2[nH]c3c(c2c1)CCCCC3`, the AC50 is, setting by setting: under setting [1], 14.1 µM [falling, single point]; under setting [2], 17.8 µM [falling, partial curve].

For the compound `C/C(=N\NC(=O)c1ccc(N/N=C(\C)c2ccncc2)cc1)c1ccncc1`, the half-maximal activity concentration (AC50) under setting [1] was 10 µM [falling, partial curve, poor fit].

As for `Cc1ccc(C(=O)/C=C/c2c(C)nn(-c3ccccc3)c2Cl)cc1`, the AC50 reads like this: under setting [1], 35.5 µM [falling, single point]; under setting [2], 35.5 µM [falling, single point].

For the compound `COC(=O)Nc1nc2ccc(-c3n[nH]c(=O)c4ccccc34)cc2[nH]1`, the concentration at half-maximal activity (AC50) runs as follows: under setting [1], 35.5 µM [rising, single point]; under setting [2], 35.5 µM [rising, single point].

Turning to `Cc1ccc(C2=NN(C)c3nc4ccccc4n3C2)cc1`, under setting [2], the half-maximal activity concentration (AC50) was 12.6 µM [rising, single point].

As for `O=C(Nc1ccc2ccccc2c1)/C(=C\c1ccc2c(c1)OCO2)NC(=O)c1ccco1`, the AC50 under setting [2] is 12.6 µM [rising, single point].

Regarding `Cc1ccccc1C(=O)N1CCN(c2ccc([N+](=O)[O-])c(NCc3cccnc3)c2)CC1`, under setting [2], the half-maximal activity concentration (AC50) is 7.08 µM [rising, partial curve, poor fit].

`Cc1ccc(C2Nc3ccccc3NC3=C2C(=O)OC(C)C3)cc1` (configuration not stated): under setting [2], the AC50 is 0.0631 µM [falling, partial curve, poor fit].

On to `CN1CCc2nc(SCC(=O)Nc3ccc(OC(F)(F)F)cc3)c(C#N)c(-c3cccs3)c2C1`, for which the half-maximal activity concentration (AC50) under setting [1] was 0.00891 µM [rising, full curve] and the AC50 under setting [2] was 0.00708 µM [rising, full curve].

`CCOC(=O)c1c(CSC(=N)N)n(-c2ccc(C)cc2)c2cc(Br)c(OC(C)=O)cc12`: the concentration at half-maximal activity (AC50) is, setting by setting: under setting [1], 35.5 µM [falling, single point]; under setting [2], 25.1 µM [falling, single point].

Turning to `O=C(NC1CC(=O)N(c2cccc(F)c2)C1)C1CCCCC1` (configuration not stated), the concentration at half-maximal activity (AC50) was 11.2 µM [falling, partial curve, poor fit] under setting [1] and 35.5 µM [falling, single point] under setting [2].

Consider `CC1CN(Cc2c(O)ccc3c(=O)c(-c4ccccc4)coc23)CC(C)O1` (configuration not stated), for which the AC50 under setting [1] is 0.141 µM [rising, full curve, poor fit].

As to `O=C(CSc1ccccc1)N(c1ccc(Br)cc1)c1nccs1`, the AC50 under setting [2] was 35.5 µM [rising, single point].

Take `CCCN1C(=O)CN(C2CCCCCC2)C(=O)C1c1ccc(OCC)c(OC)c1` (configuration not stated): under setting [1], the half-maximal activity concentration (AC50) was 0.0251 µM [falling, full curve].

In the case of `COC(=O)c1cc(NC(=O)c2cccc(Cl)c2)c(=O)oc1/C=C/Nc1cc(C)cc(C)c1`, under setting [1], the AC50 was 1.78 µM [rising, full curve].

As for `COc1cccc(-c2cc(C(F)(F)F)n3nc(C(=O)Nc4c(C)n(C)n(-c5ccccc5)c4=O)cc3n2)c1`, the AC50 under setting [1] was 35.5 µM [falling, partial curve, poor fit].

On to `Cc1ccccc1NC(=O)CN(C)S(=O)(=O)c1cccc2nsnc12`, for which, under setting [2], the half-maximal activity concentration (AC50) is 10 µM [falling, partial curve, poor fit].

With `O=S(=O)(/C=C/c1ccccc1)Oc1ccccc1`, the AC50 under setting [1] was 35.5 µM [falling, single point].

Take `CCOC(=O)c1cnn(CCOC(=O)C2CC2)c1NC(=O)C1CC1`: the AC50 under setting [1] is 3.55 µM [falling, partial curve].

Consider `Nc1nc2nccc(-c3cccnc3)n2n1`, for which the AC50 under setting [1] was 0.708 µM [rising, full curve, poor fit].

As to `CCOC(=O)c1c(NC(=O)CN2CCCCC2)sc(C)c1C`, the AC50 reads like this: under setting [1], 28.2 µM [rising, partial curve, poor fit]; under setting [2], 35.5 µM [rising, single point].

As to `Cc1ccc(C(=O)N2CCN(c3ccccc3F)CC2)cc1NC(=O)c1nsc2ccccc12`, under setting [1], the AC50 is 3.16 µM [rising, single point].

Take `COc1ccc(Cl)cc1N(CC(=O)NC(C)(C)C)S(=O)(=O)c1ccc(C)c([N+](=O)[O-])c1`: the AC50 under setting [2] is 22.4 µM [rising, single point].

For the compound `COc1ccccc1CNc1nc(-c2ccco2)nn1S(=O)(=O)c1ccc(Cl)cc1`, the half-maximal activity concentration (AC50) runs as follows: under setting [1], 0.794 µM [rising, partial curve]; under setting [2], 28.2 µM [rising, single point].

With `CCOc1ccc(N(CC(=O)Nc2ccc(F)c(F)c2)S(=O)(=O)c2c(C)noc2C)cc1`, the half-maximal activity concentration (AC50) reads like this: under setting [1], 10 µM [rising, partial curve, poor fit]; under setting [2], 12.6 µM [rising, partial curve, poor fit].

Consider `Cc1ccc(-c2nnn(CC(=O)NC3CC4CCC3C4)n2)cc1` (configuration not stated), for which the half-maximal activity concentration (AC50) by setting is: under setting [1], 35.5 µM [rising, single point]; under setting [2], 22.4 µM [rising, single point].

Regarding `CC(=O)c1cccc(NC(=S)NC(=O)c2ccc(Cl)cc2)c1`, the AC50 under setting [2] was 35.5 µM [rising, single point].

For `CCn1cnc2c1c(=O)n(Cc1csc(-c3ccccc3)n1)c(=O)n2Cc1ccccc1`, the AC50 is, setting by setting: under setting [1], 12.6 µM [rising, single point]; under setting [2], 20 µM [rising, single point].

Turning to `Cc1ccccc1NC(=O)CSc1nc2ccc(NC(=O)COc3ccccc3F)cc2s1`, the half-maximal activity concentration (AC50) is 15.8 µM [falling, partial curve] under setting [1] and 12.6 µM [falling, partial curve] under setting [2].

Regarding `COc1cc(-n2c(=O)c3ccccc3n(CC(=O)c3ccc(Br)cc3)c2=O)cc(OC)c1OC`, under setting [2], the AC50 was 5.01 µM [falling, full curve, poor fit].

In the case of `Clc1ccc(-c2c[n+](Cc3ccc(Cl)c(Cl)c3)c3n2CCC3)cc1`, the half-maximal activity concentration (AC50) under setting [2] was 22.4 µM [rising, single point].

Regarding `CCOc1cc(/C=N/O)cc(Br)c1OCC(=O)NCc1ccccc1`, the concentration at half-maximal activity (AC50) under setting [2] was 31.6 µM [rising, single point].

Take `Cc1ccc(NC(=O)CSc2n[nH]c(-c3ccncc3)n2)cc1`: the half-maximal activity concentration (AC50) under setting [1] was 1.78 µM [rising, full curve, poor fit].

As a reminder, the AC50 is the midpoint of the concentration-response curve, whichever way the signal moves.
